Results deposited as PubChem BioAssay AID493246 (Drosophila RNAi Screening Center, 2011)

- Screen: 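Identify essential fly genes by loss of cell viability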 (primary screen)
- Cell system: Drosophila Kc and S2R+ cells
- Knock-down reagent: long dsRNA against Drosophila genes
- Measurement: 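Raw, unnormalised count of remaining cells in each well; per-plate z-scores of cell number underlie the calls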
- Direction: Kc cell number and S2R+ cell number: higher = more cells remaining
- Hit rule: 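Active when the per-plate z-score of cell number is 3 or more in the direction of fewer cells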
The screen tested about 21,000 reagents; below is a random part of those that have a named target and a result. Of all reagents, 429 (2%) are marked active. 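Values are raw and not normalised between plates; calls rest on per-plate z-scores that were not deposited.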 Unmarked entries are inactive. Reagents against one gene are numbered here. A plus sign joins genes that one reagent is predicted to hit. Not given: the amount of reagent, the time to read-out.

no.	target gene	dsRNA no.	Kc cell number, rep 1	Kc cell number, rep 2	S2R+ cell number, rep 1	S2R+ cell number, rep 2
1	ms(3)76Ba	1	1.45e6	1.50e6	1.36e6	1.37e6
2	Irk3	1	1.75e6	1.83e6	1.24e6	2.89e5
3	Syn2	1	1.51e6	1.55e6	1.21e6	1.36e6
4	Usf	1	1.54e6	1.53e6	1.02e6	1.15e6
5	CG10588	1	1.36e6	1.56e6	1.30e6	1.38e6
6	st	1	1.49e6	1.64e6	1.16e6	1.21e6
7	CSN6	1	1.61e6	1.59e6	7.91e5	9.07e5
8	CG5214	1	1.42e6	1.39e6	9.69e5	1.14e6
9	Rcd1	1	1.20e6	1.31e6	1.01e6	1.09e6
10	CG15651	1	1.51e6	1.60e6	1.38e6	4.85e5
11	Acp62F	1	1.43e6	1.33e6	1.04e6	1.31e6
12	Chd3	1	1.54e6	1.90e6	1.15e6	1.32e6
13	CG31275	1	1.49e6	1.55e6	1.15e6	1.30e6
14	LpR2	1	1.08e6	1.35e6	1.04e6	1.05e6
15	LpR2	2	1.06e6	1.40e6	1.09e6	1.02e6
16	LpR2	3	4.92e5		7.66e5	
17	LpR2	4	1.49e6	1.52e6	9.41e5	1.05e6
18	CG12672	1	1.34e6	1.28e6	9.93e5	1.15e6
19	CG7741	1	1.72e6	1.75e6	1.20e6	1.36e6
20	CG10589	1	1.66e6	1.66e6	1.43e6	1.51e6
21	CG16782	1	1.52e6	1.57e6	1.08e6	1.27e6
22	CG13047	1	1.33e6	1.42e6	1.33e6	1.40e6
23	sws	1	1.48e6	1.55e6	1.08e6	1.20e6
24	CG12728	1	5.83e5		9.00e5	
25	Actn3	1	1.34e6	1.35e6	1.10e6	1.22e6
26	Oga	1	1.57e6	1.68e6	1.24e6	1.54e6
27	CG32100	1	1.43e6	1.59e6	1.24e6	1.34e6
28	CG32100	2	1.40e6	1.57e6	1.22e6	1.30e6
29	CG31300	1	1.78e6	1.65e6	1.05e6	1.16e6
30	RapGAP1	1	1.53e6	1.60e6	9.98e5	1.11e6
31	RapGAP1	2	1.67e6	1.54e6	1.22e6	1.38e6
32	RapGAP1	3	1.18e6	1.26e6	6.10e5	9.31e5
33	CG12868	1	1.71e6	1.80e6	1.43e6	1.59e6
34	CG12990	1	1.52e6	1.55e6	1.02e6	1.10e6
35	CG15251 (retired record)	1	1.64e6	1.53e6	1.08e6	1.19e6
36	CG14711 + Zaf1	1	1.36e6	1.47e6	1.33e6	1.42e6
37	ND-MWFE	1	1.80e6	1.85e6	1.20e6	1.38e6
38	REPTOR-BP	1	1.55e6	1.66e6	1.34e6	1.48e6
39	CG15258	1	1.55e6	1.73e6	1.18e6	1.28e6
40	CG12307	1	1.73e6	1.88e6	1.42e6	1.62e6
41	CG33459	1	4.97e5		7.38e5	
42	CG7099	1	1.24e6	1.31e6	1.21e6	1.24e6
43	CG2812	1	1.63e6	1.66e6	1.27e6	1.52e6
44	AlaRS	1	1.24e6	1.42e6	4.46e5	4.18e5
45	CG30020	1	1.87e6	1.92e6	1.28e6	1.55e6
46	Cp36	1	1.53e6	1.53e6	1.09e6	1.21e6
47	Cyp6g2	1	1.51e6	1.59e6	1.35e6	1.42e6
48	CG44836	1	1.41e6	1.38e6	1.23e6	1.30e6
49	CG3527	1	1.40e6	1.44e6	9.46e5	1.05e6
50	CG12481	1	1.52e6	1.55e6	1.02e6	1.17e6
51	Mal-A5	1	1.40e6	1.44e6	1.19e6	1.24e6
52	Gcn2	1	4.68e5		8.38e5	
53	hd	1	1.48e6	1.55e6	1.21e6	1.39e6
54	scat	1	1.29e6	1.38e6	1.23e6	1.18e6
55	gammaSnap1	1	1.36e6	1.39e6	1.09e6	1.16e6
56	TBC1D16	1	1.52e6	1.66e6	1.27e6	1.38e6
57	CG43980	1	1.49e6	1.57e6	1.15e6	1.33e6
58	CG43980	2	1.29e6	1.22e6	1.28e6	1.36e6
59	Npc1b	1	1.44e6	1.48e6	1.09e6	1.10e6
